Results are given in words; binding and its absence hold for the method and conditions named. For some of these results: A result given as binding can be weak or reduced; the word gives no strength. Sequences can lack the tags named with a protein. For some of these results: In cells and extracts the contact can be indirect. Blank lines part the entries; values can stand above or below the molecule they belong to.
Legend:
[1] = molecular target: T1, GST-TRIM15 ΔRING (1-61) (human) (UniProt Q9C019); assay: pull-down; GST or GST-fused TRIM15 proteins from bacteria immobilised on Glutathione Sepharose 4B; Flag-Axin1 purified from HEK293T; 50 mM Tris-HCl pH 7.4, 150 mM NaCl, 0.5% Triton, 10% glycerol, 1 mM DTT, 4 °C, 4 h or overnight; both purified
T1 sequence: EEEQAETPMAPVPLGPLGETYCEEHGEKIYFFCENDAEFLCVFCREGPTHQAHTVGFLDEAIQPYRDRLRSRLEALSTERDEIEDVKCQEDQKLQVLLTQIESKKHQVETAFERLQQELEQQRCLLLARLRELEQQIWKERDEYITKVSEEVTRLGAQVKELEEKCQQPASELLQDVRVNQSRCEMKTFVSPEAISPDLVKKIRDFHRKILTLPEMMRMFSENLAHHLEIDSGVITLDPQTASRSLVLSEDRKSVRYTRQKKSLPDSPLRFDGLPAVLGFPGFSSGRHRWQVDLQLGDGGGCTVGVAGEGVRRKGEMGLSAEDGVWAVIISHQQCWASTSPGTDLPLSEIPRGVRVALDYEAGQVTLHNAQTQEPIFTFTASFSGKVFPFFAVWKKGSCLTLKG

GST-TRIM15 (human) = molecular target: T2, GST-TRIM15 (human) (UniProt Q9C019); assay: as above
T2 sequence: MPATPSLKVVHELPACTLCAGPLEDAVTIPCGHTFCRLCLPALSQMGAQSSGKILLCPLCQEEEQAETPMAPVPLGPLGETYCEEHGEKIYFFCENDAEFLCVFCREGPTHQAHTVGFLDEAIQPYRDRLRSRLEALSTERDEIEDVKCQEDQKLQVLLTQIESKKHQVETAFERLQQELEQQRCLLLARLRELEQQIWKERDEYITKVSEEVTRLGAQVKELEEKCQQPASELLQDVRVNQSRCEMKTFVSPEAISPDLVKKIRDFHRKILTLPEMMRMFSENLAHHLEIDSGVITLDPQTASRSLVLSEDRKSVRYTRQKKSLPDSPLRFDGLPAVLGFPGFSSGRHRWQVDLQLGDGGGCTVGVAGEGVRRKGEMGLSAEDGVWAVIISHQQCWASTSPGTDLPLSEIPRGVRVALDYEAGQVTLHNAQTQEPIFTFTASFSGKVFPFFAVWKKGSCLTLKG

[2] = molecular target: T3, GST-TRIM15 ΔCC (126-229) (human) (UniProt Q9C019); assay: as above
T3 sequence: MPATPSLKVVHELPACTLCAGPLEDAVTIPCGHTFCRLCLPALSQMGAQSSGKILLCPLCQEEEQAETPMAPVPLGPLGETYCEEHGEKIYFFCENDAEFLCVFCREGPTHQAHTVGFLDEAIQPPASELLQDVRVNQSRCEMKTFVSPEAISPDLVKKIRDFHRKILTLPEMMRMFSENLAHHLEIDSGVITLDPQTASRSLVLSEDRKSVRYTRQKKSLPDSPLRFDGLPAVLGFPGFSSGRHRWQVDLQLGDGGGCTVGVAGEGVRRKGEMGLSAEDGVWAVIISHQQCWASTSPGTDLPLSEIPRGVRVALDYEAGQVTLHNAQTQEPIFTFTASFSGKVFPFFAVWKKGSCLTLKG

GFP-Axin1 (mouse) = assay: pull-down; GFP-fused Axin1 or its fragments immobilised on anti-GFP magnetic beads; Flag-TRIM15 proteins purified from HEK293T; binding buffer as for the GST pull-down; both purified
[3] = molecular target: GFP-fused Axin1-D (507-749) (mouse); assay: as above
Flag-Axin1 (mouse) = assay: co-IP; HEK293T cells transfected with the indicated plasmids; lysis buffer 50 mM Tris-Cl pH 7.4, 150 mM NaCl, 0.5% Triton, 10% glycerol; anti-Flag beads where told; Western blot; in Fig. 8d cells treated with P9715 (50 and 100 μM, 36 h)
[4] = molecular target: exogenous Axin1 (tag not given) (mouse); assay: as above

Molecule: Flag-Axin1 (mouse)
binding [1]: binds
binding (GST-TRIM15 (human)): binds
binding [2]: no binding

B1: Flag-TRIM15 ΔCC (protein, UniProt Q9C019)
chain: MPATPSLKVVHELPACTLCAGPLEDAVTIPCGHTFCRLCLPALSQMGAQSSGKILLCPLCQEEEQAETPMAPVPLGPLGETYCEEHGEKIYFFCENDAEFLCVFCREGPTHQAHTVGFLDEAIQPPASELLQDVRVNQSRCEMKTFVSPEAISPDLVKKIRDFHRKILTLPEMMRMFSENLAHHLEIDSGVITLDPQTASRSLVLSEDRKSVRYTRQKKSLPDSPLRFDGLPAVLGFPGFSSGRHRWQVDLQLGDGGGCTVGVAGEGVRRKGEMGLSAEDGVWAVIISHQQCWASTSPGTDLPLSEIPRGVRVALDYEAGQVTLHNAQTQEPIFTFTASFSGKVFPFFAVWKKGSCLTLKG
binding (GFP-Axin1 (mouse)): no binding

B3: Flag-TRIM15 (protein, UniProt Q9C019 1-465)
chain: MPATPSLKVVHELPACTLCAGPLEDAVTIPCGHTFCRLCLPALSQMGAQSSGKILLCPLCQEEEQAETPMAPVPLGPLGETYCEEHGEKIYFFCENDAEFLCVFCREGPTHQAHTVGFLDEAIQPYRDRLRSRLEALSTERDEIEDVKCQEDQKLQVLLTQIESKKHQVETAFERLQQELEQQRCLLLARLRELEQQIWKERDEYITKVSEEVTRLGAQVKELEEKCQQPASELLQDVRVNQSRCEMKTFVSPEAISPDLVKKIRDFHRKILTLPEMMRMFSENLAHHLEIDSGVITLDPQTASRSLVLSEDRKSVRYTRQKKSLPDSPLRFDGLPAVLGFPGFSSGRHRWQVDLQLGDGGGCTVGVAGEGVRRKGEMGLSAEDGVWAVIISHQQCWASTSPGTDLPLSEIPRGVRVALDYEAGQVTLHNAQTQEPIFTFTASFSGKVFPFFAVWKKGSCLTLKG
binding (GFP-Axin1 (mouse)): binds
binding [3]: binds

The next lines start with the values.

binding (GFP-Axin1 (mouse)): no binding
B2: Flag-TRIM15 ΔRBC (domain or fragment, UniProt Q9C019 230-465)
chain: PASELLQDVRVNQSRCEMKTFVSPEAISPDLVKKIRDFHRKILTLPEMMRMFSENLAHHLEIDSGVITLDPQTASRSLVLSEDRKSVRYTRQKKSLPDSPLRFDGLPAVLGFPGFSSGRHRWQVDLQLGDGGGCTVGVAGEGVRRKGEMGLSAEDGVWAVIISHQQCWASTSPGTDLPLSEIPRGVRVALDYEAGQVTLHNAQTQEPIFTFTASFSGKVFPFFAVWKKGSCLTLKG

binding (Flag-Axin1 (mouse)): binds
B4: TRIM15-YFP (protein, UniProt Q9C019 1-465)
chain: MPATPSLKVVHELPACTLCAGPLEDAVTIPCGHTFCRLCLPALSQMGAQSSGKILLCPLCQEEEQAETPMAPVPLGPLGETYCEEHGEKIYFFCENDAEFLCVFCREGPTHQAHTVGFLDEAIQPYRDRLRSRLEALSTERDEIEDVKCQEDQKLQVLLTQIESKKHQVETAFERLQQELEQQRCLLLARLRELEQQIWKERDEYITKVSEEVTRLGAQVKELEEKCQQPASELLQDVRVNQSRCEMKTFVSPEAISPDLVKKIRDFHRKILTLPEMMRMFSENLAHHLEIDSGVITLDPQTASRSLVLSEDRKSVRYTRQKKSLPDSPLRFDGLPAVLGFPGFSSGRHRWQVDLQLGDGGGCTVGVAGEGVRRKGEMGLSAEDGVWAVIISHQQCWASTSPGTDLPLSEIPRGVRVALDYEAGQVTLHNAQTQEPIFTFTASFSGKVFPFFAVWKKGSCLTLKG

binding [4]: binds
binding (GFP-Axin1 (mouse)): binds
B5: Flag-TRIM15 ΔRING (domain or fragment, UniProt Q9C019 62-465)
chain: EEEQAETPMAPVPLGPLGETYCEEHGEKIYFFCENDAEFLCVFCREGPTHQAHTVGFLDEAIQPYRDRLRSRLEALSTERDEIEDVKCQEDQKLQVLLTQIESKKHQVETAFERLQQELEQQRCLLLARLRELEQQIWKERDEYITKVSEEVTRLGAQVKELEEKCQQPASELLQDVRVNQSRCEMKTFVSPEAISPDLVKKIRDFHRKILTLPEMMRMFSENLAHHLEIDSGVITLDPQTASRSLVLSEDRKSVRYTRQKKSLPDSPLRFDGLPAVLGFPGFSSGRHRWQVDLQLGDGGGCTVGVAGEGVRRKGEMGLSAEDGVWAVIISHQQCWASTSPGTDLPLSEIPRGVRVALDYEAGQVTLHNAQTQEPIFTFTASFSGKVFPFFAVWKKGSCLTLKG

From publication PMC12859064
